# Measurements published in paper PMC11810782.
# Chains of the proteins cited; added tags and fusions are not shown.
# UniProt P08247: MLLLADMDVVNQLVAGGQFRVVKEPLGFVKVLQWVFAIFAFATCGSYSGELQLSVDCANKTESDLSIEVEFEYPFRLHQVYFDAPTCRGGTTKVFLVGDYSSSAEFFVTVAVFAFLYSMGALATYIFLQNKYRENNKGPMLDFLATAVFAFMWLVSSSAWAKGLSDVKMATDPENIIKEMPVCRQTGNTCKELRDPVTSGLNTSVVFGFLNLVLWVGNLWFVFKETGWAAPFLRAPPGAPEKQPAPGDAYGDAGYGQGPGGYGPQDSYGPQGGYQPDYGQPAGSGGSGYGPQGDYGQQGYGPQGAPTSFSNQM
# UniProt P63027: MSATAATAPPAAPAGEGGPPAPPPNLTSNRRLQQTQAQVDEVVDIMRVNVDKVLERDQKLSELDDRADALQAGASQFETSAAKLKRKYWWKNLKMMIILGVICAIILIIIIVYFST
# No constants are given. Whether binding was seen depends on the method and setting. Binding seen in cells or lysates may run through a third protein. Some results given as binding are weak or reduced against the parent protein; the word gives no strength.
# Target: Flag-tagged synaptophysin (Syp-1xFLAG) (UniProt P08247)
# Assay: co-IP; Syp-1xFLAG and Strep-VAMP2 co-expressed; membrane fraction solubilised with 1.5% ChloroSMA80 into native nanodiscs at 4 °C; discs purified on anti-FLAG beads at 4 °C, eluted with 3x FLAG peptide; Coomassie gel and western blots of the eluate
substance,measurement,value
Strep-tagged VAMP2 (from UniProt P63027 1-116),binding,binds
